Out of some 580,000 compounds screened, about 6,100 (1.1%) were called active. This list was built around the results that the source calls inconclusive (neither active nor inactive); the mix of calls is not that of the screen. The call rests on the fitted dose curve; in most records, active means well fitted inhibition curve with a large enough effect; inconclusive means small, poorly fitted or top-dose-only effect, or another doubt; inactive means no such curve, though single readings can be large or run the other way. Potencies of inconclusive entries are doubtful fits and often do not repeat.
Molecular target: Polyunsaturated fatty acid lipoxygenase ALOX12 (Homo sapiens) (UniProt P18054)
Experiment: Primary qHTS assay for inhibitors of human arachidonate 12S-lipoxygenase (ALOX12): Round 2
Conditions: purified 12hLO, xylenol orange hydroperoxide absorbance; series mostly up to 108 µM
How it was run: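 Hydroperoxide product was detected by ferrous iron/xylenol orange as the 573 to 405 nm absorbance ratio. Arachidonic acid at 40 uM (final) was turned over for 30 min at room temperature by 150 nM human 12hLO, pH 7.0 Hepes buffer, after 15 min compound preincubation.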
Potency means the concentration at half of the fitted maximal effect.

Amino acid sequences for entries named in this document (tags omitted). A change or cut given only in a name is not applied to a line headed by its entry.
UniProt P18054: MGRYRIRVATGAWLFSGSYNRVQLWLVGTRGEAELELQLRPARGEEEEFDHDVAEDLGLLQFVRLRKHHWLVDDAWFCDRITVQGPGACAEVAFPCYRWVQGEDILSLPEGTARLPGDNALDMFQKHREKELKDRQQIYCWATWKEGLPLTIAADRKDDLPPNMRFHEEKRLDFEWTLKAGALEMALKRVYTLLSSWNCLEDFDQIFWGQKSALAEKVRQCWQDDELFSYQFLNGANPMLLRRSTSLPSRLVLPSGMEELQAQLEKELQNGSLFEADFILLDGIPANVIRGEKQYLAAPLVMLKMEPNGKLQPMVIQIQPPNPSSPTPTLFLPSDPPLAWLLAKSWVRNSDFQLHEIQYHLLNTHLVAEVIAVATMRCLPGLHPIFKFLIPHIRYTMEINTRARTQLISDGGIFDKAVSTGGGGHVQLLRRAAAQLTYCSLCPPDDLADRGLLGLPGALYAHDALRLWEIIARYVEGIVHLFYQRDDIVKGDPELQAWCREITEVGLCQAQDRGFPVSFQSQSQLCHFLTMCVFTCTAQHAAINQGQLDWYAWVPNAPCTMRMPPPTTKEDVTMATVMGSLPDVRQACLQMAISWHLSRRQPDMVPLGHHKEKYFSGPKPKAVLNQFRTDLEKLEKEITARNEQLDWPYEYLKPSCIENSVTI

Compound | Potency
O=C(O)c1cccc(NC(=O)c2cccc(S(=O)(=O)Nc3cccc([N+](=O)[O-])c3)c2)c1 | inconclusive: 35.5 µM [inhibitor, partial curve, poor fit]
CC(C)(C)n1ncc2c(=O)n(CC(=O)Nc3ccc(Cl)cc3)cnc21 | inactive
COc1cccc(C2NC(=S)N(Cc3ccc(F)cc3)C(C)=C2C(C)=O)c1 (stereo unspecified) | active: 44.7 µM
O=C1N=C(N2CCOCC2)SC1=Cc1ccco1 | inconclusive: 39.8 µM [inhibitor, partial curve, poor fit]
CCCCc1cc(=O)oc2cc(OCC(=O)Nc3ccccn3)ccc12 | inactive
O=C(NCc1ccc2c(c1)OCO2)c1ccc(CSCc2ccccc2Cl)o1 | inactive
CC1=C(C(=O)Nc2cc(C)ccc2C)C(c2cccc3ccccc23)NC(=S)N1 (stereo unspecified) | inconclusive: 63.1 µM [inhibitor, partial curve, poor fit]
Oc1ccc(N=Cc2cccc3ccccc23)cc1 | inconclusive: 10 µM [inhibitor, partial curve, poor fit]
O=C1Cc2cc(S(=O)(=O)Nc3ccc(F)cc3Cl)ccc2N1 | inconclusive: 112 µM [inhibitor, single point]
Cn1cccc1CN1CCC2(CC1)C(=O)NCN2Cc1ccc(Cl)cc1 | inconclusive: 31.6 µM [inhibitor, partial curve]
CCN(C(=O)CSc1nc2cc(S(=O)(=O)N(CC)CC)ccc2o1)C1CCS(=O)(=O)C1 (stereo unspecified) | inactive
CCOC(=O)N1CCC(N(CCN(C)C)C(=S)Nc2cccc(OC)c2)CC1 | inactive
O=C1/C(=C\Nc2ccccc2)CCN1c1ncccn1 | inconclusive: 31.6 µM [inhibitor, partial curve, poor fit]
CCCCNC1=CC(=O)C(NCCCC)=CC1=O | inactive
Cc1cc(O)c2c(O)c3c(O)cccc3cc2c1 | inconclusive: 11.4 µM [inhibitor, partial curve]
O=C(NC1CCCC1)c1ccc(CS(=O)Cc2ccccc2Cl)o1 (stereo unspecified) | inactive
O=C(N/N=C/C(Br)=C/c1ccccc1)C(O)c1ccccc1 (stereo unspecified) | inactive
CCn1nccc1C(=O)N1CCC2(CC1)N=C(c1ccc(C)cc1)NO2 | inactive
COC(=O)c1ccc(C2C=C(c3ccc(Cl)cc3)Nc3nc4ccccc4n32)cc1 (stereo unspecified) | inconclusive: 89.1 µM [inhibitor, single point]
Cc1ccc(C(=O)NCC(=O)NCCCc2ccccc2)cc1 | inconclusive: 126 µM [inhibitor, single point]
CCCCn1c(=O)[nH]c(=O)c2c1nc(CN1CCN(S(=O)(=O)c3ccc(C)cc3)CC1)n2CC | inconclusive: 50.1 µM [inhibitor, partial curve, poor fit]

Quoted from the listing.
Entry of CCn1nccc1C(=O)N1CCC2(CC1)N=C(c1ccc(C)cc1)NO2 under Potency: inactive
Entry of CC1=C(C(=O)Nc2cc(C)ccc2C)C(c2cccc3ccccc23)NC(=S)N1 (stereo unspecified) under Potency: inconclusive: 63.1 µM [inhibitor, partial curve, poor fit]

— PubChem BioAssay AID1671190 (National Center for Advancing Translational Sciences (NCATS), 2021)
